Data reported in article PMC11835620.
Construct, isoform or probe ends are uncertain for at least one entry. The comparison behind a weaker result is the experiment's own reference, which may not be listed here.

The chains behind the UniProt entries cited, without tags or fusion partners.
UniProt P06730, whole entry: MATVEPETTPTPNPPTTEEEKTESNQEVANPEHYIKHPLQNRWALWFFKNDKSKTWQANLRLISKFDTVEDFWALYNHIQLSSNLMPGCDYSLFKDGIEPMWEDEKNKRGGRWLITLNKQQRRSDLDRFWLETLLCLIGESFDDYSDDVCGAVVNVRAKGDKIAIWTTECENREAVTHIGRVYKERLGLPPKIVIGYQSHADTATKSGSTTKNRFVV

Target: eIF4E (human) (UniProt P06730)
Test: EMSA
Conditions: KD measured but printed only in the figure, lower affinity than AG 3'OH; 5' cap m7G(3'OMe)pppm6A(2'OMe)G; A1 is N6,2'-O-dimethyl; cap m7G not in strand; EMSA: 25 nM oligo, eIF4E 5 nM to 1.5 uM (2-fold dilutions), 100 mM NaCl, temperature not given; recombinant protein

AGGAAAUAAGAGAGAAAAGAAGAGUAAGAAGAAAUAUAAGAGC [M6 3'OMe cap 43-mer]
binding result: binds more weakly
